# Some of the results follow.
# B1: SJCP1531 (Schistosoma japonicum) (protein)
# chain: MFKVRIINLVNISTVLLLINLLQTKSQVNVEQLVTVLEVNIKAQLKNKTTEVLVEWNPLYQDNSMPEYRKLLDETCKLFLPFVNEKVPPSTYGGECTNANFSEAPQDGSYSRVNAELRLIYKYSDNPQIQTDRLQDDLNDREEFITSESSFVAYNPKFTVKIEKLFIPISESQTTPPPTTAKNDASKKDDDDNGGEDSKAPIDTFAMTASGNKGKKDDDDNGGEDSKAPIDTFAMTASGSKDERSTWTIIGIITLVVLIFVVIGGGITVFVKRC
# How the values were obtained:
# Assay in all cases: glycan array binding signal (z-score within array); higher = stronger binding
# Conditions in all cases: glycan notation: IUPAC condensed, linker removed
# [1] = target: Fuc(a1-2)Gal6S(b1-3)GlcNAc6S
# In short: (§1)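 Arrays were curated from the Consortium for Functional Glycomics database, 3228 in total, and kept only where the protein sequence was available. Binding is expressed as a within-array Z-score. This score was averaged across arrays of the same protein sequence at different concentrations or buffers and across linkers, and negative values can be read as non-binding.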
# Fuc(a1-2)Gal6S(b1-4)Glc = target: Fuc(a1-2)Gal6S(b1-4)Glc
# In short: as §1
# [2] = target: Fuc(a1-2)Gal6S(b1-4)Glc6S
# In short: as §1
# Fuc(a1-2)[Gal(a1-3)]Gal = target: Fuc(a1-2)[Gal(a1-3)]Gal
# In short: as §1
# [3] = target: Fuc(a1-2)[Gal(a1-3)]Gal(b1-3)GalNAc
# In short: as §1
# [4] = target: Fuc(a1-2)[Gal(a1-3)]Gal(b1-3)GalNAc(b1-3)Gal(a1-4)Gal(b1-4)Glc
# In short: as §1
# [5] = target: Fuc(a1-2)[Gal(a1-3)]Gal(b1-3)GlcNAc
# In short: as §1
# [6] = target: Fuc(a1-2)[Gal(a1-3)]Gal(b1-3)GlcNAc(b1-2)Man(a1-3)[Fuc(a1-2)[Gal(a1-3)]Gal(b1-3)GlcNAc(b1-2)Man(a1-6)]Man(b1-4)GlcNAc(b1-4)GlcNAc
# In short: as §1
# [7] = target: Fuc(a1-2)[Gal(a1-3)]Gal(b1-3)GlcNAc(b1-2)Man(a1-3)[Fuc(a1-2)[Gal(a1-3)]Gal(b1-3)GlcNAc(b1-2)Man(a1-6)]Man(b1-4)GlcNAc(b1-4)[Fuc(a1-6)]GlcNAc
# In short: as §1
# [8] = target: Fuc(a1-2)[Gal(a1-3)]Gal(b1-3)GlcNAc(b1-3)GalNAc
# In short: as §1
# [9] = target: Fuc(a1-2)[Gal(a1-3)]Gal(b1-3)GlcNAc(b1-6)GalNAc
# In short: as §1
# [10] = target: Fuc(a1-2)[Gal(a1-3)]Gal(b1-4)Glc
# In short: as §1
# [11] = target: Fuc(a1-2)[Gal(a1-3)]Gal(b1-4)GlcNAc
# In short: as §1
# [12] = target: Fuc(a1-2)[Gal(a1-3)]Gal(b1-4)GlcNAc(b1-2)Man
# In short: as §1
# [13] = target: Fuc(a1-2)[Gal(a1-3)]Gal(b1-4)GlcNAc(b1-2)Man(a1-3)[Fuc(a1-2)[Gal(a1-3)]Gal(b1-4)GlcNAc(b1-2)Man(a1-6)]Man(b1-4)GlcNAc(b1-4)GlcNAc
# In short: as §1
# [14] = target: Fuc(a1-2)[Gal(a1-3)]Gal(b1-4)GlcNAc(b1-2)Man(a1-3)[Fuc(a1-2)[Gal(a1-3)]Gal(b1-4)GlcNAc(b1-2)Man(a1-6)]Man(b1-4)GlcNAc(b1-4)[Fuc(a1-6)]GlcNAc
# In short: as §1
# [15] = target: Fuc(a1-2)[Gal(a1-3)]Gal(b1-4)GlcNAc(b1-3)GalNAc
# In short: as §1
# [16] = target: Fuc(a1-2)[Gal(a1-3)]Gal(b1-4)GlcNAc(b1-3)[Fuc(a1-2)[Gal(a1-3)]Gal(b1-4)GlcNAc(b1-6)]GalNAc
# In short: as §1
# [17] = target: Fuc(a1-2)[Gal(a1-3)]Gal(b1-4)GlcNAc(b1-6)GalNAc
# In short: as §1
# [18] = target: Fuc(a1-2)[Gal(a1-3)]Gal(b1-4)[Fuc(a1-3)]Glc
# In short: as §1
# [19] = target: Fuc(a1-2)[Gal(a1-3)]Gal(b1-4)[Fuc(a1-3)]GlcNAc
# In short: as §1
# [20] = target: Fuc(a1-2)[Gal(a1-3)]Gal(b1-4)[Fuc(a1-3)]GlcNAc(b1-3)GalNAc
# In short: as §1
# [21] = target: Fuc(a1-2)[Gal(a1-4)]Gal(b1-4)GlcNAc
# In short: as §1
# [22] = target: Fuc(a1-2)[GalNAc(a1-3)]Gal
# In short: as §1
# [23] = target: Fuc(a1-2)[GalNAc(a1-3)]Gal(b1-3)GalNAc(a1-3)[Fuc(a1-2)]Gal(b1-4)GlcNAc
# In short: as §1
# [24] = target: Fuc(a1-2)[GalNAc(a1-3)]Gal(b1-3)GalNAc(b1-3)Gal(a1-4)Gal(b1-4)Glc
# In short: as §1
# [25] = target: Fuc(a1-2)[GalNAc(a1-3)]Gal(b1-3)GlcNAc
# In short: as §1
# [26] = target: Fuc(a1-2)[GalNAc(a1-3)]Gal(b1-3)GlcNAc(b1-2)Man(a1-3)[Fuc(a1-2)[GalNAc(a1-3)]Gal(b1-3)GlcNAc(b1-2)Man(a1-6)]Man(b1-4)GlcNAc(b1-4)GlcNAc
# In short: as §1
# [27] = target: Fuc(a1-2)[GalNAc(a1-3)]Gal(b1-3)GlcNAc(b1-2)Man(a1-3)[Fuc(a1-2)[GalNAc(a1-3)]Gal(b1-3)GlcNAc(b1-2)Man(a1-6)]Man(b1-4)GlcNAc(b1-4)[Fuc(a1-6)]GlcNAc
# In short: as §1
# [28] = target: Fuc(a1-2)[GalNAc(a1-3)]Gal(b1-3)GlcNAc(b1-3)GalNAc
# In short: as §1
# [29] = target: Fuc(a1-2)[GalNAc(a1-3)]Gal(b1-3)GlcNAc(b1-6)GalNAc
# In short: as §1
# [30] = target: Fuc(a1-2)[GalNAc(a1-3)]Gal(b1-4)Glc
# In short: as §1
# [31] = target: Fuc(a1-2)[GalNAc(a1-3)]Gal(b1-4)GlcNAc
# In short: as §1
# [32] = target: Fuc(a1-2)[GalNAc(a1-3)]Gal(b1-4)GlcNAc(b1-2)Man
# In short: as §1
# [33] = target: Fuc(a1-2)[GalNAc(a1-3)]Gal(b1-4)GlcNAc(b1-2)Man(a1-3)[Fuc(a1-2)[GalNAc(a1-3)]Gal(b1-4)GlcNAc(b1-2)Man(a1-6)]Man(b1-4)GlcNAc(b1-4)GlcNAc
# In short: as §1
# [34] = target: Fuc(a1-2)[GalNAc(a1-3)]Gal(b1-4)GlcNAc(b1-2)Man(a1-3)[Fuc(a1-2)[GalNAc(a1-3)]Gal(b1-4)GlcNAc(b1-2)Man(a1-6)]Man(b1-4)GlcNAc(b1-4)[Fuc(a1-6)]GlcNAc
# In short: as §1
# [35] = target: Fuc(a1-2)[GalNAc(a1-3)]Gal(b1-4)GlcNAc(b1-3)Gal(b1-4)GlcNAc
# In short: as §1
# [36] = target: Fuc(a1-2)[GalNAc(a1-3)]Gal(b1-4)GlcNAc(b1-3)Gal(b1-4)GlcNAc(b1-3)Gal(b1-4)GlcNAc
# In short: as §1
# [37] = target: Fuc(a1-2)[GalNAc(a1-3)]Gal(b1-4)GlcNAc(b1-3)GalNAc
# In short: as §1
# [38] = target: Fuc(a1-2)[GalNAc(a1-3)]Gal(b1-4)GlcNAc(b1-3)[Fuc(a1-2)[GalNAc(a1-3)]Gal(b1-4)GlcNAc(b1-6)]GalNAc
# In short: as §1
# [39] = target: Fuc(a1-2)[GalNAc(a1-3)]Gal(b1-4)GlcNAc(b1-6)GalNAc
# In short: as §1
# [40] = target: Fuc(a1-2)[GalNAc(a1-3)]Gal(b1-4)[Fuc(a1-3)]GlcNAc
# In short: as §1
# [41] = target: Fuc(a1-2)[GalNAc(a1-3)]Gal(b1-4)[Fuc(a1-3)]GlcNAc(b1-3)GalNAc
# In short: as §1
# [42] = target: Fuc(a1-2)[GalNAc(a1-4)]Gal(b1-4)GlcNAc
# In short: as §1
# [43] = target: Fuc(a1-2)[GalNAc(b1-3)]Gal
# In short: as §1
binder,measurement,setting,value
B1,glycan array binding signal (z-score),[1],-1.24
same,glycan array binding signal (z-score),Fuc(a1-2)Gal6S(b1-4)Glc,0.605
same,glycan array binding signal (z-score),[2],-0.261
same,glycan array binding signal (z-score),Fuc(a1-2)[Gal(a1-3)]Gal,0.637
same,glycan array binding signal (z-score),[3],-0.135
same,glycan array binding signal (z-score),[4],-0.741
same,glycan array binding signal (z-score),[5],1.16
same,glycan array binding signal (z-score),[6],-0.108
same,glycan array binding signal (z-score),[7],0.774
same,glycan array binding signal (z-score),[8],-1.19
same,glycan array binding signal (z-score),[9],-0.582
same,glycan array binding signal (z-score),[10],0.437
same,glycan array binding signal (z-score),[11],-0.849
same,glycan array binding signal (z-score),[12],0.387
same,glycan array binding signal (z-score),[13],0.761
same,glycan array binding signal (z-score),[14],1.76
same,glycan array binding signal (z-score),[15],-0.383
same,glycan array binding signal (z-score),[16],-0.164
same,glycan array binding signal (z-score),[17],-1.02
same,glycan array binding signal (z-score),[18],-0.555
same,glycan array binding signal (z-score),[19],0.277
same,glycan array binding signal (z-score),[20],0.545
same,glycan array binding signal (z-score),[21],0.12
same,glycan array binding signal (z-score),[22],-0.36
same,glycan array binding signal (z-score),[23],-0.433
same,glycan array binding signal (z-score),[24],-1.4
same,glycan array binding signal (z-score),[25],1.26
same,glycan array binding signal (z-score),[26],0.166
same,glycan array binding signal (z-score),[27],0.319
same,glycan array binding signal (z-score),[28],-0.335
same,glycan array binding signal (z-score),[29],-1.96
same,glycan array binding signal (z-score),[30],0.645
same,glycan array binding signal (z-score),[31],-0.118
same,glycan array binding signal (z-score),[32],-0.514
same,glycan array binding signal (z-score),[33],-0.814
same,glycan array binding signal (z-score),[34],0.585
same,glycan array binding signal (z-score),[35],-0.095
same,glycan array binding signal (z-score),[36],0.03
same,glycan array binding signal (z-score),[37],0.123
same,glycan array binding signal (z-score),[38],1.54
same,glycan array binding signal (z-score),[39],-1.98
same,glycan array binding signal (z-score),[40],0.432
same,glycan array binding signal (z-score),[41],0.07
same,glycan array binding signal (z-score),[42],0.747
same,glycan array binding signal (z-score),[43],0.595

# 3 entries picked at random from those above:
binder,measurement,setting,value
B1,glycan array binding signal (z-score),[25],1.26
same,glycan array binding signal (z-score),[11],-0.849
same,glycan array binding signal (z-score),Fuc(a1-2)[Gal(a1-3)]Gal,0.637

# Reference: the supplement of paper PMC8728848
